Assay results from paper PMC4392876.
No constants are given. Whether binding was seen depends on the method and setting. For part of these data: Binding seen in cells or lysates may run through a third protein. Some binding calls cover weakened binding; strength is not graded here. Where a sequence is shown, tags or fusion partners need not be part of it.

Sequences of proteins named here, by UniProt entry; tags and fusion partners are left off. A change or cut given only in a name is not applied to a line headed by its entry.
UniProt Q5TKA1: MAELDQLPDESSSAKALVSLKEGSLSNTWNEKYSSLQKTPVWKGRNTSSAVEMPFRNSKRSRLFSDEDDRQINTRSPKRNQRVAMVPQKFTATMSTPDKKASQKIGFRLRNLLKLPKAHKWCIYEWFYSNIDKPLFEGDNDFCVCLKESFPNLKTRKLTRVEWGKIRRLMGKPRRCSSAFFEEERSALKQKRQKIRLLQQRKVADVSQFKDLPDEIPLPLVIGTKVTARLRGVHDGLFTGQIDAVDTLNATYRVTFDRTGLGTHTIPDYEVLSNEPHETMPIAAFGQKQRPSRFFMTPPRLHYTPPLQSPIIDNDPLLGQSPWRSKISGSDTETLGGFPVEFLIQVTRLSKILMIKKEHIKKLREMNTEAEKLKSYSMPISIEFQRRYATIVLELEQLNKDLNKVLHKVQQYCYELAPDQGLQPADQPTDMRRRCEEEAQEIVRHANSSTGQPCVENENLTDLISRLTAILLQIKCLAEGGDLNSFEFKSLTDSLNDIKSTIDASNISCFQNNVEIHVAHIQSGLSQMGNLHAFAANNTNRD

Columns and labels:
GST-FOXM1(1–367) (human) [1] = biological target: T1, GST-FOXM1(1–367) (human) (UniProt Q08050); assay: pull-down; GST pulldown: 500 ng of GST-FOXM1(1-367) as bait with 1/10 of the eluate of the His-tagged Lin9 proteins purified from bacteria; detection by immunoblotting with anti-Flag and anti-GST; both purified
T1 sequence: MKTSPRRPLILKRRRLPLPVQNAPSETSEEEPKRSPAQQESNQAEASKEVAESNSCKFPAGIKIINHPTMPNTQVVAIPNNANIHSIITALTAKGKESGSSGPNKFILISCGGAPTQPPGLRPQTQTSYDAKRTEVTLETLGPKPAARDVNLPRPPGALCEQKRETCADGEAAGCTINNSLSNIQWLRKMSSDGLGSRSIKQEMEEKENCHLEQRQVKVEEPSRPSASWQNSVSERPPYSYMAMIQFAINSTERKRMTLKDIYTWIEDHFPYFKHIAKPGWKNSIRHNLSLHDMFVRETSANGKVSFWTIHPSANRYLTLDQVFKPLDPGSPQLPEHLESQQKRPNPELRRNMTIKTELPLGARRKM

GST-FOXM1(1–367) (human) [2] = biological target: T1, GST-FOXM1(1–367) (human); assay: pull-down; GST pulldown: 500 ng of GST-FOXM1(1-367) as bait with 1 µl of in vitro translated proteins; precipitated proteins detected by phosphorimaging; only the target purified

Row | binding (GST-FOXM1(1–367) (human) [1]) | binding (GST-FOXM1(1–367) (human) [2]) | Substance
1 | binds | – | full-length Lin9, bacterially expressed and purified (pAS3094, pET-30b-Lin9(full-length)) (from UniProt Q5TKA1 1-542)
2 | – | binds | Lin9 isoform 1, in vitro translated (pAS3078, pcDNA3.1-Lin9 isoform 1) (from UniProt Q5TKA1 1-542)
3 | binds | – | Lin9(1–270), bacterially expressed and purified (pAS3091, pET-30b-Lin9(1–270)) (from UniProt Q5TKA1 1-270) (domain or fragment)
